Measurements from patent publication US20140309170A1.
These are yes or no findings as the source states them, for the method shown. Some results given as binding are weak or reduced against the parent protein; the word gives no strength.

The chains behind the UniProt entries cited, without tags or fusion partners. Where a name states a change or a piece, a line headed by the entry shows the natural chain unless it says otherwise.
UniProt P07288: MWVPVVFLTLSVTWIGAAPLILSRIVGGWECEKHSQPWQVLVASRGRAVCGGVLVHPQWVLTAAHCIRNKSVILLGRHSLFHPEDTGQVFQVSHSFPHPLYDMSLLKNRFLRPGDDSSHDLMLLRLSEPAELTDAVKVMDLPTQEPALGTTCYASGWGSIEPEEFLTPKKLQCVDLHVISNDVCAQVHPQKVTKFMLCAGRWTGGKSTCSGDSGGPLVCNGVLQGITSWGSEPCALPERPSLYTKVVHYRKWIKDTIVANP

Molecular target: T1, alpha1 anti-chymotrypsin (ACT) (UniProt P01011)
T1 sequence (looked up): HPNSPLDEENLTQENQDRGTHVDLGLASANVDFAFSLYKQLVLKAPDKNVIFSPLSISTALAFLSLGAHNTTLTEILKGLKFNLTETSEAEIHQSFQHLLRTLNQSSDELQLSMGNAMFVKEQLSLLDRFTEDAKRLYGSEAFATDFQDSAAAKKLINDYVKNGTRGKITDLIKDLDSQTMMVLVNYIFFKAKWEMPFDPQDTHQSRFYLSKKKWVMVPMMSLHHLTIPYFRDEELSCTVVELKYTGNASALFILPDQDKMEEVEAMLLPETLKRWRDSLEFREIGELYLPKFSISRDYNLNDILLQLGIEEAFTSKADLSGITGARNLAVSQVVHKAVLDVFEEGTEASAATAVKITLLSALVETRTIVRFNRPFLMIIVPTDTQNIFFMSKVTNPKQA
Experiment: PSA-ACT complex used in HUVEC Matrigel tube formation assay; complex formation itself not assayed

Q: How did the binding turn out when “f-PSA (free PSA purified from human seminal plasma) (from UniProt P07288 25-261) (enzyme)” was run?
A: binds
